## Library screen at single concentrations

The values are deposited in ChEMBL (CHEMBL3988442, “University of Dundee, Small-Polar-MMV Screening Library” (2021)).

Each number is a percent effect as filed. The record does not define 0% and 100%; most values in the screen are far below 50% and negative numbers occur (in some assays of this library far below -100). This is an unselected part of the compounds tested. Two or more numbers in one place are separate tests of the same structure; such repeats can differ widely.

Mtb cholesterol medium: 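Phenotypic screen: M. tuberculosis growth, cholesterol and DPPC medium, 4 days; the read-out is not stated. Compounds at 50 µM. The record gives no direction; compounds that gave an IC50 in retests scored well above the rest, so higher reads as more growth inhibition. Of about 69,000 compounds tested this way, about 370 (0.54%) reached 50% or more in at least one test.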
Mtb glucose medium: 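Phenotypic screen: M. tuberculosis growth, glucose 7H9 medium, 3 days; the read-out is not stated. Concentration: 50 µM. The record gives no direction; compounds that gave an IC50 in retests scored well above the rest, so higher reads as more growth inhibition. Of about 69,000 compounds tested this way, about 760 (1.1%) reached 50% or more in at least one test.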

Compound | Mtb cholesterol medium | Mtb glucose medium
Cc1nc(-c2ccc(Cl)s2)sc1C(=O)NCCCC(N)=O | 6.826 | -11.47
Cc1nn(C)c(Cl)c1C1CCCN1C(=O)c1cnccn1 (stereo unspecified) | -14.57 | -5.944
COc1cc(OC)c(CNC(=O)NCC(=O)N2CCCC2)c(OC)c1 | -4.172 | -28.49
CCc1ccc(C(=O)N2CCCC(n3cncn3)C2)o1 (stereo unspecified) | -5.825 | -12.71 and -13.67
Cc1cnn(CC2CN(CC(=O)Nc3nncs3)CCO2)c1 (stereo unspecified) | 0.8624 | 9.275
CC(C)(C)Cc1noc2ncc(C(=O)N3CCSCC3)cc12 | -20.98 | -17.09
Cc1noc(NC(=O)c2ccc(Br)s2)n1 | 2.483 | 68.23
Cc1nc(CN2CCOC(c3ccc(Cl)cc3)C2)oc1C (stereo unspecified) | 21.56 | 15.35 and 37.42
Cc1nc(C2CCNCC2)cc(N(C)CCc2cn[nH]c2)n1 | 19.94 | 21.16
COCCN1CCN(CC(C)(O)c2cccc(C(F)(F)F)c2)CC1 (stereo unspecified) | 12.9 | 15.47
CC(=O)NCc1noc2c1CN(Cc1ccsc1)CC2 | 3.439 | 94.94 and 8.659
COCC(=O)N1CCCCC1c1nc(C)c2c(n1)N(CC1CC1)C(=O)C2 (stereo unspecified) | -2.303 | 17.16
O=C(c1csc(-c2ccco2)n1)N1CCOc2ncccc21 | 4.386 and 1.759 | -4.396
OCc1csc(N2CCN(Cc3cccc(F)c3)CC2)n1 | -1.219 | -2.428 and 11
O=C(c1cc(COc2ccc3c(c2)OCO3)[nH]n1)N1CCCC(O)C1 (stereo unspecified) | -1.687 and 1.295 | -1.525
CC(C)CNC(=O)c1cc(C2CC2)nc2onc(C3CCNCC3)c12 | 4.291 | 10.25
CNc1nc(C2CCCN(C(=O)C3CCCCC3)C2)nc2c1CNCC2 (stereo unspecified) | -6.841 | 20.36
CN(C)CCn1nc(C2CCN(Cc3ccccc3)C2)c2cccnc21 (stereo unspecified) | 4.999 and 15.44 | 41.55
O=C(NC1CCCN(c2ccccc2Cl)C1)c1c[nH]nn1 (stereo unspecified) | -14.04 | -4.08
O=C(NS(=O)(=O)c1ccc(F)cc1)C1CCOc2ccccc21 (stereo unspecified) | 3.882 | 0.7262
O=C(O)[C@@H]1OCC(=O)N(Cc2cccc(Cl)c2)[C@@H]1c1ccccc1 | -8.365 | 1.755
[H][C@@]12CN(S(=O)(=O)c3ccc(F)cc3)C[C@@]1([H])OCC(=O)N2 | -40.88 | -31.9
O=C(O)C(F)(F)F.c1ncn(Cc2cnc3n2CCN(Cc2ccsc2)CC3)n1 | -4.407 | -2.347
N#Cc1ccc(CN2CCC(CN3CCOCC3)C2)cc1 (stereo unspecified) | 2.88 | 20.77
CC(O)CN1CCc2onc(C(c3ccccc3)c3ccccc3)c2C1 (stereo unspecified) | -3.293 | -17.82
COCCNC(=O)NC1CCN(c2cnn(C)c2)C1 (stereo unspecified) | -9.027 and -21.39 | -1.861
COc1ncccc1C(=O)N1CC(c2nc(-c3cccs3)no2)C1 | 6.686 | -10.6
CN1CCCc2c1nc1c(c2N)CCCC1.O=C(O)C(=O)O | -1.54 | -17.1 and -6.499
CC(=O)c1ccc(C(=O)NCC2Cc3ccccc3O2)s1 (stereo unspecified) | 11.72 and 25.51 | 11.88
O=C(Nc1ccccc1)c1cccc(S(=O)(=O)NC[C@@H]2C[C@H](F)CN2)c1 | 14.08 | 3.741 and 8.683
O=C(O)C(F)(F)F.O=C(O)C(F)(F)F.c1nc(CNC2CCOCC2)c2n1CCCN(CC1CC1)C2 | -12.96 | 15.49
COc1ccc(-c2cc(C3CCOC3)c(C#N)c(N)n2)cn1 (stereo unspecified) | -38.73 | -31.8
CNC(=O)CS(=O)(=O)C1CCN(S(=O)(=O)c2c(F)cccc2F)CC1 | -21.32 | 6.302 and 1.843
COCCN(Cc1ccccn1)C(=O)CC1OCCc2sccc21 (stereo unspecified) | 8.624 | -6.532
COc1ccccc1N1CC(NC(=O)Cn2cc(C(C)C)nn2)CC1=O (stereo unspecified) | 0.6009 | 2.38
CC(=O)c1ccc(N2CCC(CO)(CCOc3ccccc3)CC2)nc1 | -35.62 | 31.6
O=c1ncn(-c2ccc(F)cc2)c2ncccc12 | 4.691 | 3.986 and -3.624
Cc1ccc(Cl)c(CN2CCN(C)C(C(=O)O)C2)c1F (stereo unspecified) | -6.234 | -2.392
O=C(CN1CCOC(CNc2cccnn2)C1)NCc1ccccn1 (stereo unspecified) | -29.07 | -45.9
Cc1cc(C)nc(Nc2cccc(C3CCCN(CCO)C3)n2)n1 (stereo unspecified) | 27.24 | 27.05
C[C@@H]1CN(C2(C(=O)N3CCSCC3)Cc3ccccc3C2)C[C@H](C)O1 | 3.335 | 26.34 and 0.04124
CCn1cnnc1C1CCN(C(=O)c2ccc3ccccc3n2)CC1 | -2.839 | 16
CC(C)c1cc(NCc2csc(C(C)C)n2)nc(N)n1 | -30.64 | 9.323 and 21.07
CCc1noc(CS(=O)(=O)c2cccc(OC)c2)n1 | 28.51 | -16.34
COc1cccc(CN2C[C@@H](F)[C@@H](OCc3nc4cnccc4[nH]3)C2)c1 | 8.362 | -1.311 and 5.793
CC(C)Cn1cncc1-c1nc2c([nH]1)CC(C)(C)CNC2=O | -5.138 | -15.31
COc1cccc(Nc2nc(C3CCCNC3)c3ccccn23)c1.Cl (stereo unspecified) | 6.549 and 7.351 | 15.91
Cc1ccc(-c2nc(CCNC(=O)C3CC(=O)N(C)C3)cs2)cc1 (stereo unspecified) | -7.194 | 11.03
Cc1cc(C)n(CC(C)NCc2nncn2C2CCCCC2)n1 (stereo unspecified) | -22.68 | -15.27
Cc1nc(CN(C)Cc2csc(-c3cccs3)n2)co1 | -8.74 | -1.894 and -18.67
COc1cccc(CN2CCCC(c3cc(C(N)=O)[nH]n3)C2)c1 (stereo unspecified) | 5.717 | 6.324
COCc1cncc2c1CCN(C(=O)c1cscn1)C2 | -14.91 | -11.41
CCc1nc2n(n1)CCCC2NC(=O)Nc1ccc(SC)c(F)c1 (stereo unspecified) | 5.953 | 16.4
CCn1cc(NC(=O)CCc2ccc3c(c2)OCCCO3)cn1 | 14.37 | 27.48
O=C(CN1CCc2ccccc2C1)NCc1cc2n(n1)CCCNC2 | 7.789 | 7.293
Cc1cccc(S(=O)(=O)N2CCCC3(CCCN3S(C)(=O)=O)C2)c1 (stereo unspecified) | -14.11 | -13.99
Cc1ccc(C(=O)N2CCC(=O)N(CC3CC3)C(C(C)C)C2)c(=O)[nH]1 (stereo unspecified) | -39.43 | -43.22
[H][C@@]12C[C@H](C(=O)NC)[C@@]([H])(CN(C(=O)NC(C)C)C1)O2 | -18.48 | -21.39
CN1CC(=O)N(c2cccc(F)c2)CC12CCN(Cc1ccsc1)C2.O=C(O)C(F)(F)F.O=C(O)C(F)(F)F (stereo unspecified) | 10.06 and -5.34 | 9.245 and -2.92
COc1ccccc1OCCCN1C(=O)CCNC1=O | -27.78 | -31.46

The first 5 entries again:

* Cc1nc(-c2ccc(Cl)s2)sc1C(=O)NCCCC(N)=O : Mtb cholesterol medium: 6.826%; Mtb glucose medium: -11.47%
* Cc1nn(C)c(Cl)c1C1CCCN1C(=O)c1cnccn1 (stereo unspecified) : Mtb cholesterol medium: -14.57%; Mtb glucose medium: -5.944%
* COc1cc(OC)c(CNC(=O)NCC(=O)N2CCCC2)c(OC)c1 : Mtb cholesterol medium: -4.172%; Mtb glucose medium: -28.49%
* CCc1ccc(C(=O)N2CCCC(n3cncn3)C2)o1 (stereo unspecified) : Mtb cholesterol medium: -5.825%; Mtb glucose medium: -12.71% and -13.67%
* Cc1cnn(CC2CN(CC(=O)Nc3nncs3)CCO2)c1 (stereo unspecified) : Mtb cholesterol medium: 0.8624%; Mtb glucose medium: 9.275%